This is one part of the list. These are raw signals, not scaled to a control.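 First-pass screen: polymyxin B was added at a level that permeabilizes the Salmonella outer membrane while sparing the inner membrane. DMSO wells, with and without polymyxin B, defined maximum growth. Because plates differed from one another, each plate's data were ranked separately and the compounds with the lowest OD600 were carried forward as hits.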

For the test, the system named is Salmonella enterica serovar Typhimurium SL1344. As to the kind of experiment: bacterial growth OD600 after 18 h with compound and polymyxin B; higher = more bacterial growth (less inhibition). The note with it: 50 µM, Mueller-Hinton broth.

Consider `Cc1ccccc1CC(C1CCN(C(=O)CSc2ccccn2)CC1)N(C)C(=O)Cn1cccn1` (configuration not stated), for which, where the note is “polymyxin B 0.75 µg/mL”, the “bacterial growth OD600” value worked out at 0.831. As to `COc1ccc(CN(Cc2cccnc2)CC2CCCN(C3CCCCC3)C2)cc1OC` (configuration not stated), where the note is “polymyxin B 0.75 µg/mL”, the “bacterial growth OD600” value is 0.935.

As for `CS(=O)(=O)N1CCc2onc(-c3ccc(F)c(F)c3)c2C1`, the “bacterial growth OD600” value (polymyxin B 0.75 µg/mL) came to 0.857. On to `O=C1N(Cc2cccc(Cl)c2)C[C@@H]2C[C@@H](c3cccn3-c3ccccn3)N3CCC[C@@]123`, for which, under “polymyxin B 1 µg/mL”, the “bacterial growth OD600” value is 0.526.

With `CCN1CCCC1CNC(=O)CCC1CCN(Cc2[nH]c3ccc(OC)cc3c2C)CC1` (configuration not stated), the “bacterial growth OD600” value (polymyxin B 0.75 µg/mL) stood at 0.805. Turning to `COc1cccc(-c2cc3c(c(OC)c2)OCCN(Cc2ccccc2)C3)n1`, the “bacterial growth OD600” value (polymyxin B 0.75 µg/mL) was 0.816.

Turning to `C[C@@H]1CN(c2ccc(C(=O)N3CCC(CCn4cccn4)CC3)cn2)C[C@H](C)O1`, where the note is “polymyxin B 0.75 µg/mL”, the “bacterial growth OD600” value stood at 0.776. On to `COc1ccc(NC2CCCN(C(=O)C3(C)CCCCC3)C2)cc1` (configuration not stated), for which the “bacterial growth OD600” value (polymyxin B 1 µg/mL) stood at 0.813. Same read-out and setting: the value for `O=C(NCc1cccc(Cl)c1)c1coc(COc2ccc3c(c2)OCO3)n1` was 0.809. For `Cc1ccc(CN2Cc3cc(Cl)ccc3OC(C)C2)o1` (configuration not stated), the “bacterial growth OD600” value (polymyxin B 0.75 µg/mL) came out at 0.721.

As for `COc1ccccc1CCNC(=O)Cc1ccc(N2CCC(NC(C)Cc3cccnc3)CC2)cc1` (configuration not stated), the “bacterial growth OD600” value (polymyxin B 0.75 µg/mL) stood at 0.748. Still for that read-out and setting: the value for `CCC(=O)N[C@@H]1c2ccccc2C2(CCN(Cc3cc(C)cc(C)c3)CC2)[C@H]1OCCOC` was 0.861. Take `O=C(NCc1cccnc1Oc1ccccc1)c1ccc2c(c1)OCO2`: the “bacterial growth OD600” value (polymyxin B 1 µg/mL) was determined as 0.939.

Consider `O=C(c1coc(COc2ccc(F)cc2Cl)n1)N1CCCC(O)C1` (configuration not stated), for which the “bacterial growth OD600” value (polymyxin B 1 µg/mL) turned out to be 0.955. The same measure, in the same setting: the value for `CCCc1cc(CNC(=O)c2ccc(N3CCN(C)CC3)nc2)on1` was 0.917. As for `O=C(Cn1cccn1)N1CCC(C2CCN(Cc3cccc(F)c3F)CC2)C1` (configuration not stated), the “bacterial growth OD600” value (polymyxin B 0.75 µg/mL) is 0.814. Consider `Cc1ncoc1C(=O)N1CCC2(CCCN(Cc3ccccc3F)C2=O)C1` (configuration not stated), for which, for the setting “polymyxin B 1 µg/mL”, the “bacterial growth OD600” value was 0.973.

For `CC1(C)C[C@@H]2C[C@@](C)(CN2C(=O)c2coc(COc3ccc4c(c3)OCO4)n2)C1`, the “bacterial growth OD600” value (polymyxin B 1 µg/mL) is 0.055.

As for `CC(=O)c1ccc(OCc2cc(C(=O)N3CCCC(O)C3)no2)cc1` (configuration not stated), the “bacterial growth OD600” value (polymyxin B 1 µg/mL) worked out at 1.01. Turning to `COc1ccc(CNC2CCCc3nc(N4CCC(CO)CC4)ncc32)c(F)c1` (configuration not stated), the “bacterial growth OD600” value (polymyxin B 0.75 µg/mL) came to 0.792. Regarding `O=C(c1cc(Cn2ccc3ccccc32)[nH]n1)N1CCCO1`, for the setting “polymyxin B 1 µg/mL”, the “bacterial growth OD600” value was found to be 0.864. Turning to `COCC1CCCN(C(=O)c2cn(CCC3CCCCC3)nn2)C1` (configuration not stated), the “bacterial growth OD600” value (polymyxin B 1 µg/mL) was 0.98. As to `O=C(NCCC1COc2ccccc2O1)c1ccc(OC2CCN(C(=O)C3CC3)CC2)cc1` (configuration not stated), for the setting “polymyxin B 1 µg/mL”, the “bacterial growth OD600” value is 0.789. Turning to `O=C(CCC1(Cc2ccccc2)CCC(=O)N1)NCc1ccco1` (configuration not stated), under “polymyxin B 0.75 µg/mL”, the “bacterial growth OD600” value stood at 0.878. As to `Cc1c(C(C)NCc2cccc(O)c2)cnn1-c1cccc2ccccc12` (configuration not stated), the “bacterial growth OD600” value (polymyxin B 0.75 µg/mL) worked out at 0.572. `O=C(CCCc1ccccc1)Nc1ccnn1C1CCN(C2CCOCC2)CC1`: the “bacterial growth OD600” value (polymyxin B 0.75 µg/mL) stood at 0.904. `CCOc1ccc(CN2CCN(Cc3cccc(F)c3F)CC2CCO)cc1` (configuration not stated): the “bacterial growth OD600” value (polymyxin B 1 µg/mL) was 0.958. Consider `O=C1N(Cc2cccc(F)c2F)CCCC1(O)CNCc1ccccc1` (configuration not stated), for which the “bacterial growth OD600” value (polymyxin B 1 µg/mL) came out at 0.888. For the compound `CN(C(=O)C1=CCCC1)C1CCCN(CCc2ccccc2)C1` (configuration not stated), the “bacterial growth OD600” value (polymyxin B 1 µg/mL) is 1.36. The same measure, in the same setting: next, `O=C(NCCN1CCOC1=O)c1ccc2oc(CCc3ccccc3)nc2c1`: 0.766.

Consider `O=C(CCc1cnccn1)N(Cc1cccnc1)CC1CCN(C2CCCC2)CC1`, for which the “bacterial growth OD600” value (polymyxin B 1 µg/mL) was 1.19. `Cc1ccccc1CC(=O)NC1CC(=O)N(CCCc2ccccc2)C1` (configuration not stated): the “bacterial growth OD600” value (polymyxin B 1 µg/mL) stood at 1.13.

The record behind these values is the supplement of paper PMC12889115.
